# Results from PubChem BioAssay AID504444 (National Center for Advancing Translational Sciences (NCATS), 2011).
# Hit rate of the full screen: of about 360,000 compounds, about 7,500 (2.1%) were called active. The inconclusive results got no clear call from the source; some entries with a clear call stand among them for comparison. Calls come from the whole dose curve; as a rule, active = well fitted inhibition curve with a large enough effect; inconclusive = small, poorly fitted or top-dose-only effect, or effect the other way; inactive = flat fitted curve, though single readings scatter. Potencies of inconclusive entries are doubtful fits and often do not repeat.
# Experiment: Nrf2 qHTS screen for inhibitors; note: nearly all actives have a fitted effect of over 60% in size
# Details: A549 ARE-Fluc reporter, luciferase luminescence, 18-24 h; activity change, negative = inhibition: at 46 µM (top of the series)
# In short: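 Concentration-response testing used A549 ARE_Fluc cells at 5000 cells/well. Following an 18-24 h compound incubation, viability was read by fluorescence (Ex 405/Em 525) and luciferase output by luminescence.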
# % is set by controls: 0 for no effect and ±100 for the full control effect; potency is the fitted concentration of half-maximal effect.
Compound,Potency,"activity change, negative = inhibition"
Cc1cc(OCCCn2c(CCNC(=O)C3CCCCC3)nc3ccccc32)ccc1Cl,"inconclusive: 29.1 µM [falling, single point]",
Cc1ccccc1C(=O)N1CCC(C(=O)Nc2ccc(C)c(S(=O)(=O)N3CCCCC3)c2)CC1,"inconclusive: 32.6 µM [falling, single point]",
CCOC(=O)c1ccc(N2CCOCC2)c(NC(=O)c2c(-c3ccccc3)noc2C)c1,inactive,
CCOC(=O)N1CCN(C(=O)CSCc2ccc(Br)cc2)CC1,inactive,
CCOc1ccc(C(=O)N(Cc2cc(OC)c(OC)c(OC)c2)c2ccccn2)cc1,"inconclusive: 13 µM [falling, partial curve, poor fit]",
O=C1CCC/C1=c1\s/c(=C/c2cccnc2)c(=O)n1-c1ccccc1,"inconclusive: 32.6 µM [falling, partial curve, poor fit]",
O=C(CSc1nc(-c2cccs2)nc2cc(=O)[nH]n12)Nc1cccc(C(F)(F)F)c1,"inconclusive: 29.1 µM [activator, single point]",
CCc1ccc(OCC(O)CN2CCC(CN3C(=O)c4cccc5cccc(c45)C3=O)CC2)cc1 (configuration not stated),inactive,
O=c1c2ccccc2c(-c2ccccc2)nn1Cc1c(Cl)cccc1Cl,"inconclusive: 32.6 µM [falling, partial curve, poor fit]",
COc1ccc(OC)c(NC(=O)CSc2ncc3c(n2)-c2ccccc2N(C)S3(=O)=O)c1,inactive,
Cc1ccc(-c2csc(NC(=O)CCNC(=O)c3ccccc3Cl)n2)cc1,active: 23.1 µM,
CCCNC(=O)c1ccc(-c2nc(CS(=O)(=O)c3ccc(C)cc3)c(C)o2)cc1,inactive,
Cn1c(=O)n(C)c2cc([N+](=O)[O-])c(N3CCN(S(=O)(=O)c4ccc5ccccc5c4)CC3)cc21,active: 5.8 µM,
NC(=O)CSc1nnc(Cn2cnc3ccccc32)o1,inactive,
CC(=O)Nc1cccc(NC(=O)c2ccc3[nH]c(C)c(C)c3c2)c1,inactive,
C[C@]12c3[nH]c4ccccc4c3CCN1C(=O)C(CC(=O)NCC13CC4CC(CC(C4)C1)C3)C[C@@H]2C(=O)N1CCCCC1 (some centres not stated),active: 16.4 µM,
COc1ccccc1N(CC(=O)Nc1ccc2c(c1)OCO2)S(=O)(=O)c1ccc(C)cc1,inactive,
COc1ccc(-n2nc(C(=O)NCC(=O)N3CCCCCC3)c3ccccc3c2=O)cc1Cl,"inconclusive: 3.26 µM [activator, full curve, poor fit]",
O=C(CCc1nc2ccccc2[nH]1)Nc1ccc(F)cc1,inactive,
Cn1c(C(C#N)C(=O)c2sc3ccccc3c2Cl)nc2ccccc21 (configuration not stated),"inconclusive: 11.6 µM [falling, partial curve, poor fit]",
O=C(Cn1cnc2onc(-c3ccc(F)cc3)c2c1=O)Nc1ccc(F)c(Cl)c1,"inconclusive: 23.1 µM [falling, partial curve, poor fit]",
O=C(CN1c2ccccc2S(=O)(=O)c2ccccc21)Nc1ccccc1Cl,"inconclusive: 16.4 µM [activator, partial curve]",
CCc1nn(CC(=O)NCCCN2CCN(CC)CC2)c(=O)c2cc3occc3n12,"inconclusive: 29.1 µM [activator, single point]",

# A draw from above in order of count of non-hydrogen atoms, ascending.
Compound,Potency,"activity change, negative = inhibition"
Cc1ccc(-c2csc(NC(=O)CCNC(=O)c3ccccc3Cl)n2)cc1,active: 23.1 µM,
O=C(CSc1nc(-c2cccs2)nc2cc(=O)[nH]n12)Nc1cccc(C(F)(F)F)c1,"inconclusive: 29.1 µM [activator, single point]",
Cc1cc(OCCCn2c(CCNC(=O)C3CCCCC3)nc3ccccc32)ccc1Cl,"inconclusive: 29.1 µM [falling, single point]",
C[C@]12c3[nH]c4ccccc4c3CCN1C(=O)C(CC(=O)NCC13CC4CC(CC(C4)C1)C3)C[C@@H]2C(=O)N1CCCCC1 (some centres not stated),active: 16.4 µM,

# Further results.

Compound,Potency,"activity change, negative = inhibition"
COc1ccc(C2=Nn3c(nnc3-c3ccccc3OC)SC2)cc1,"inconclusive: 0.517 µM [activator, full curve]",
CCCOc1ccc(-c2nonc2NC(=O)c2oc3ccc(Cl)cc3c2C)cc1OCCC,inactive,
Cc1ccc(-n2ncc3c2CCCC3NC(=O)c2ocnc2C)cc1C (configuration not stated),active: 2.31 µM,
O=C(NCc1ccc(F)cc1)c1cccnc1C(=O)O,"inconclusive: 3.26 µM [falling, partial curve, poor fit]",
O=C(NCCCN1CCN(c2ccc(F)cc2)CC1)c1cnn(-c2ccc(F)cc2)c1-n1cccc1,"inconclusive: 29.1 µM [falling, single point]",
CCc1ccc(NC(=O)CSc2ccc(-c3ccccn3)nn2)cc1,active: 20.6 µM,
Cn1nc(C(=O)OCC(=O)Nc2ccc(F)cc2Cl)c2ccccc2c1=O,"inconclusive: 29.1 µM [activator, single point]",
Cc1csc(NC(=O)CCc2c(C)nc3cc(-c4ccc(Cl)cc4)nn3c2C)n1,active: 1.46 µM,
CCOC(=O)c1ccccc1NC(=O)CSc1nc2ccccc2c(=O)[nH]1,"inconclusive: 29.1 µM [falling, single point]",
CCCNC(=O)NC(=O)CSc1nc2ccccc2n1CC(C)C,"inconclusive: 29.1 µM [falling, single point]",
CCOc1ccccc1NC(=O)c1cc(C(=O)c2cc(Br)ccc2O)coc1=N,"inconclusive: 18.4 µM [falling, single point]",
O=C(NCCSCc1ccc(Cl)cc1Cl)c1ccc(CN2CCOCC2)cc1,"inconclusive: 29.1 µM [falling, single point]",
COc1ccc(/C=C/C(=O)Oc2cccc(/C=N/NC(=O)Cc3ccc(Br)cc3)c2)cc1,"inconclusive: 4.11 µM [activator, partial curve, poor fit]",
CC1CCc2sc(C(=O)N(C)CC(=O)Nc3cccc(F)c3)cc2C1 (configuration not stated),"inconclusive: 29.1 µM [falling, single point]",
Cc1cccc(N2CCN(C(=O)COc3cc4oc(=O)cc(C)c4cc3Cl)CC2)c1C,"inconclusive: 0.0041 µM [falling, full curve, poor fit]",
CCCCS(=O)(=O)CC(O)CSc1nc(-c2ccc(C)cc2)cc(-c2ccccc2)c1C#N (configuration not stated),"inconclusive: 18.4 µM [falling, partial curve, poor fit]",
CCOC(=O)/C(C#N)=C/c1ccc(-c2ccc(Br)cc2)o1,"inconclusive: 14.6 µM [activator, partial curve, poor fit]",
O=C(O)c1cccc(-c2nnn(Cc3ccccc3)n2)c1,"inconclusive: 7.08 µM [activator, full curve]",
Cc1ccc(S(=O)(=O)CC2CSc3nc(N)cc(=O)n32)cc1 (configuration not stated),inactive,
O=C(Nc1ccc(F)cc1F)c1cc(-c2ccc(Cl)cc2)on1,inactive,
CCOC(=O)c1ccc(NC(=O)CCn2c(=O)c3cccn3c3cccnc32)cc1,,inconclusive: 45.5% [activator]
Cc1cccc(NC(=O)c2cc(S(=O)(=O)NCc3ccco3)ccc2F)c1C,"inconclusive: 32.6 µM [falling, single point]",
CCc1cccc(NS(=O)(=O)c2ccc(-n3cccn3)cc2)c1,"inconclusive: 14.6 µM [falling, partial curve, poor fit]",

Compound,Potency,"activity change, negative = inhibition"
COc1cc(/C=N/N=C2/NC(=O)C(Cc3ccc(F)cc3)S2)ccc1O (configuration not stated),"inconclusive: 29.1 µM [activator, single point]",
Nc1c(C(=O)NCc2ccc(Cl)cc2)sc2nc3c(c(C(F)(F)F)c12)CCC3,"inconclusive: 18.4 µM [falling, partial curve, poor fit]",
Cc1ccc2c(C)nc(Nc3nc(CSc4nc5ccccc5[nH]4)cc(=O)[nH]3)nc2c1,"inconclusive: 0.461 µM [falling, full curve, poor fit]",
Cc1ccc2nc(-c3ccc(NC(=S)NC(=O)CC(C)C)cc3)sc2c1,"inconclusive: 3.66 µM [activator, partial curve]",
Cc1cc(C)nc(/N=C(\N)Nc2ccc(OCCC(C)C)cc2)n1,"inconclusive: 29.1 µM [falling, single point]",
Cc1cc(CSc2ccccc2)ccc1NC(=O)c1ccc(CN2CCOCC2)cc1,"inconclusive: 16.4 µM [falling, single point]",
O=C(CN1CCCc2ccccc21)N/N=C/c1ccc(F)cc1F,inactive,
CCc1ccccc1OCCOc1ccc(C)cc1OC,"inconclusive: 0.517 µM [activator, partial curve, poor fit]",
CCS(=O)(=O)N1CCc2cc(C(=O)Nc3ccc(C(=O)OC)cc3)ccc21,"inconclusive: 29.1 µM [falling, single point]",
CC1C(=O)N2CCCc3cc(S(=O)(=O)NCCc4ccccc4)cc1c32 (configuration not stated),active: 16.4 µM,
CCn1cc(C(=O)N2CCN(c3cccc(Cl)c3)CC2)c2cc(OC)c(OC)cc2c1=O,"inconclusive: 25.9 µM [falling, partial curve, poor fit]",
Cc1cc(C)c(C#N)c(N2CCSCC2)n1,inactive,
CCCc1ccc(Oc2coc3cc(OCC(=O)Nc4ccccc4C)ccc3c2=O)cc1,"inconclusive: 13 µM [falling, partial curve]",
CCn1c(SCC(=O)N2CCN(c3ccccc3)CC2)nnc1-c1c[nH]c2ccccc12,"inconclusive: 18.4 µM [falling, single point]",
OCCNCCCCSc1ccc(Cl)cc1,"inconclusive: 1.03 µM [falling, partial curve, poor fit]",
O=C(NCC1CCCO1)c1ccc(N2CCCCC2)nc1 (configuration not stated),"inconclusive: 8.2 µM [activator, partial curve]",
CC1=C(c2ccc(C(C)C)cc2)S(=O)(=O)NC1=NCCCN1CCN(c2ccccc2F)CC1,inactive,
O=C(COC(=O)c1cnccn1)NCCc1ccc(Cl)cc1,"inconclusive: 13 µM [activator, partial curve]",
Cc1ccc(-n2c3c(cc(-c4nc(-c5ccc(Cl)cc5)cs4)c2=O)C(=O)CC(C)(C)C3)cc1C,inactive,
O=C(c1cc(F)ccc1F)C1CCCN(C(=O)c2ccc3nccnc3c2)C1 (configuration not stated),"inconclusive: 9.2 µM [activator, partial curve, poor fit]",
Cc1cc(C)c(C)c(S(=O)(=O)N2CCC(C(=O)N(C)Cc3nc4ccccc4c(=O)[nH]3)CC2)c1C,"inconclusive: 29.1 µM [falling, single point]",
